Values quoted from earlier work as cited in patent publication US8877808B2, “Protection against skin diseases by aurin tricarboxylic acid and its derivatives” (Aurin Biotech Inc., priority 2012, dated 2014).
At least one structure is not confirmed: it was looked up by name or label, or the drawing left a doubt.

Protein sequences, listed by entry. Tags and fused reporters are not part of them. Residues count along the entry.
UniProt P00746, 26-253: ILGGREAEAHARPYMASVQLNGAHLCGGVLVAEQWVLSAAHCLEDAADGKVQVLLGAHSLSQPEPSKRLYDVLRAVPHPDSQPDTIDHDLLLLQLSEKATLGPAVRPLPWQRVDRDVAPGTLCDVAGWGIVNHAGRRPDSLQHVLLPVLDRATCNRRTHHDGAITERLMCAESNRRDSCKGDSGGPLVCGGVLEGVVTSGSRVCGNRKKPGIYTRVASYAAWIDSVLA

Target: Factor D (Homo sapiens, UniProt P00746)
Settings: Lee et al. 2012b; cited from earlier work

O=C(O)C1=CC(=C(c2ccc(O)c(C(=O)O)c2)c2ccc(O)c(C(=O)O)c2)C=CC1=O [ATA, aurin tricarboxylic acid]
binding to Factor D: binds to Factor D
